Assay results: PMC9604325
These are yes or no findings as the source states them, for the method shown. Binding seen in cells or lysates may run through a third protein. Some results given as binding are weak or reduced against the parent protein; the word gives no strength.

Sequences of proteins named here, by UniProt entry; tags and fusion partners are left off. Residues count along the entry.
UniProt P05067, residues 672-713: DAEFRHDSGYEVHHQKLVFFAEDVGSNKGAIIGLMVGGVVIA
UniProt P70302, residues 23-685: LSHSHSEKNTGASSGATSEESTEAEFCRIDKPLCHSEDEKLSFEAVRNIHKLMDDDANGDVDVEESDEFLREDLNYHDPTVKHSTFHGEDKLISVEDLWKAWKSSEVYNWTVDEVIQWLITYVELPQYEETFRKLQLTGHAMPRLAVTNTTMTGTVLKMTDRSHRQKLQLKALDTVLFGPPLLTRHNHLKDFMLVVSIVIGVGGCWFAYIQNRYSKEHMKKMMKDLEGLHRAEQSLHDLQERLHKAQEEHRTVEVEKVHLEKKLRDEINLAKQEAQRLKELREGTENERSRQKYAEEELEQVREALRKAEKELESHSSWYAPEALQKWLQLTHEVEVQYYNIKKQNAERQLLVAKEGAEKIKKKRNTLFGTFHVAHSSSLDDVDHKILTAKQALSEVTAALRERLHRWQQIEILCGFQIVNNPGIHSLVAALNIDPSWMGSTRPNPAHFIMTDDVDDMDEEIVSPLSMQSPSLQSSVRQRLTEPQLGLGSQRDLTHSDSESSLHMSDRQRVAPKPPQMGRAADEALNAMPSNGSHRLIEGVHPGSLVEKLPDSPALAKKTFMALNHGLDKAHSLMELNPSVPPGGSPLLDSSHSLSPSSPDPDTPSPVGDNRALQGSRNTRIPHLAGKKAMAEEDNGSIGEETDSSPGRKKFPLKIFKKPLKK

Tests used:
[1] = target: Amyloid-β (1-42) peptide, unlabeled (UniProt P05067); assay: co-IP; 500 μg HT-22 lysate, mouse anti-Aβ antibody on protein A/G PLUS-Agarose, 0.25 μM Aβ(1-42) added for 1 h at 4 °C, absence or presence of Ca^2+; Western blot with anti-STIM1; only the target purified
[2] = target: Amyloid-β (1-42) peptide, unlabeled (UniProt P05067); assay: co-IP; as a1 in the presence of Ca^2+, lysate previously incubated for 30 min with 1 μM peptide … (C-terminal amide); Western blot with anti-STIM1; only the target purified

binding [1]: binds | binding [2]: binds
Substance: Stromal interaction molecule 1 (STIM1), endogenous in HT-22 cells (from UniProt P70302 23-685)
